Assay results as given in article PMC3698097.
Positions count from the first letter of the chain named. Results are given in words; binding and its absence hold for the method and conditions named. In cells and extracts the contact can be indirect. For some assays here: A result given as binding can be weak or reduced; the word gives no strength. Tags and fused reporters may be left off the sequences shown.

By UniProt entry, the sequences of proteins in these tests, tags left out. Where a name states a change or a piece, a line headed by the entry shows the natural chain unless it says otherwise.
UniProt O42998: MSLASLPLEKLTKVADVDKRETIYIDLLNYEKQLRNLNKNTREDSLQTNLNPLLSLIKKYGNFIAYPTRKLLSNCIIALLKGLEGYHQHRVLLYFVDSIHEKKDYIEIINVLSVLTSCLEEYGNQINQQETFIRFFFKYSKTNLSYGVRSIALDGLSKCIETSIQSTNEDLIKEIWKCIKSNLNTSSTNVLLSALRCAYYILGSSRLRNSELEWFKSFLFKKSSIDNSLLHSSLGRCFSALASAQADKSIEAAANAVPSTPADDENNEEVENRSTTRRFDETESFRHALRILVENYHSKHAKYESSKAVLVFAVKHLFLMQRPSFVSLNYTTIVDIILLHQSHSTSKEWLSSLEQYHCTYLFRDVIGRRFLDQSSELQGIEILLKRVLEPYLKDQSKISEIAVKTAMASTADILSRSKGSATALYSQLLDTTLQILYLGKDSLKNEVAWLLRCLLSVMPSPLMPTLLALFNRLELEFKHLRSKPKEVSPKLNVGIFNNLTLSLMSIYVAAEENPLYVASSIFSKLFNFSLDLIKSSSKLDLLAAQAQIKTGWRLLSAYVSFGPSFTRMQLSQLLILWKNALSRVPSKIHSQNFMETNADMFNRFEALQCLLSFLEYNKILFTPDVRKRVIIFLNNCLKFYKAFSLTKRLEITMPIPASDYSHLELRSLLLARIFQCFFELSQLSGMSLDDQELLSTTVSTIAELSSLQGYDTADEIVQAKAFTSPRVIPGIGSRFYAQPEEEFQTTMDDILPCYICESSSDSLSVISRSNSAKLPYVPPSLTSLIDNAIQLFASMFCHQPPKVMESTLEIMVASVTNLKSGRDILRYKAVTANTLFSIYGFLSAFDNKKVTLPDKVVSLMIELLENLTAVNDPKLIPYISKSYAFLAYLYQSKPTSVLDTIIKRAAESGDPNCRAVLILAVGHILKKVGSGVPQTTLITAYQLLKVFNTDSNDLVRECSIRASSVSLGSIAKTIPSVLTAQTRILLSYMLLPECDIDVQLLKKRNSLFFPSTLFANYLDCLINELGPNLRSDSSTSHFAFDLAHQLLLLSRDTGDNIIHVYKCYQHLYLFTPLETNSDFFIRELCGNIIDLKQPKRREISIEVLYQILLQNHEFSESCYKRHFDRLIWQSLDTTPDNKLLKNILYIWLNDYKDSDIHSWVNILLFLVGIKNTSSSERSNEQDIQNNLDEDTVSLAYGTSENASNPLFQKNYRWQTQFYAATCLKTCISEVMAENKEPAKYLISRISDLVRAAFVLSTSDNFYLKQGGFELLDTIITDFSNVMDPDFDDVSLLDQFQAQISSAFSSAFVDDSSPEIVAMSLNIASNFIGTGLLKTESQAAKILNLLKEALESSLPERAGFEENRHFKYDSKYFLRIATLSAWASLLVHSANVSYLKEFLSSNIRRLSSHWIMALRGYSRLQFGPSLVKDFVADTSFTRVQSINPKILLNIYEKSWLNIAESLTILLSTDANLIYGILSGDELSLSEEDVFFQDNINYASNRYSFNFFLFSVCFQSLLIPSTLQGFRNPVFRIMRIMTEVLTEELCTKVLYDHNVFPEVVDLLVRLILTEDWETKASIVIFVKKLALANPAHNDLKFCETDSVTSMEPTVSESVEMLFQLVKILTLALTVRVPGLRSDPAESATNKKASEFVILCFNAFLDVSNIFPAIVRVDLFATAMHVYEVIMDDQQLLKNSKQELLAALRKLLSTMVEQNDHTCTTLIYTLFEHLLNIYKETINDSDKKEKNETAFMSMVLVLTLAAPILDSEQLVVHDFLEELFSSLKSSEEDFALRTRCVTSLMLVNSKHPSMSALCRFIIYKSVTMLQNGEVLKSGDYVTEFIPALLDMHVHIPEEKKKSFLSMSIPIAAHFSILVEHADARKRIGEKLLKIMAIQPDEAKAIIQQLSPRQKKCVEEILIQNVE

B1: Aps1 fused to GFP (subunit of the AP-1 complex) (protein, UniProt Q9P7N2 1-162)
chain: MSIKFFLLVSRQGKVRLAKWFNTLSIKERAKIIRDVSSLVITRKPKMCNFVEYKGEKIVYRRYASLFFVCGIEQDDNELIILEVIHKFVECLDKYFGNVCELDLIFNFEKAYYVMEELLLAGELQESSKTNVLSAVLAGDAESEADAQQDSLQKLVGSVKKR
B2: Apl4 fused to GFP (subunit of the AP-1 complex) (protein, UniProt Q9UU81 1-836)
chain: MSSLKSFIKAVRASKTTAEEHTTILKESAQIRKNIRQGSNDMRMRRKNVAKLLYLFLLGEPTHFGQIECLKLLSSSRFMDKRLGYLAAMLLLDENQEVLTLLTNSLQNDLKSRDKFIVGLALSAFGNVAGPELARDLSNDIAELCSNHHNYISKKAVLCALRVIQKEPDLESLYIEKTDELLHSKSHGVLMAALAFAISACKINPSLISRFESQADDLIYRIRQLSTSTYSSEHNIGNISDPFLQVKILQFLSILGQNNPKIYDKMSDLLAQVCTNTDSSRNAGNAILYQAVRTILDLNSDSSLRVLGVNILAKFLGNRDNNTRYVALNMLKLVVNSEENAVQRHRSTILACLNDVDSSIQSRALELSTFLVNEANVRFMVRELLSFLDNVSDELRGSTAQYITEVTNAFAPNKRWHFDTLLRVFKSAGNFVSESTLSTFLRLIASAPELHEYAVVKLYAALKEDVSQEALTLSAFWVIGEYGQMLLSPTMNFDDDQTLPHSVSESDIVDIIEEVFNSVEASRYIIVQYGLFALTKLSARLGSSSTASRIDKIIYSYKRNKNTEVQQRSVEFHLILNDSKLSKTILEPTPAPLPPPRTTPYQNAEQKLKANKHVEKRVQESNELLDLIGLTTPSVAEPLETPVDEMTQSPQSSLSRAPSTSKKSHFEDILGLFASPAPSAQPVDSLASSFASLDFNASASQPSNNLSLLSSIPSTSKSYPPIVVFDKHDVTLTLVPSKEESTKTAVIEAKFKNKNPMTRVEKIHLEVAVPKSQKLKIQPLRTTSMEPGGETSQTLRVHGPSGSQVKLRLRISVVRQGGSNTLDQVDFGKLPSDLLQ
B3: GFP-Rho3 (wild-type Rho3 fused to GFP) (protein, UniProt O13928 1-205)
chain: MSSCFGSKKKPIYRKIVILGDGAAGKTSLLNVFTKGYFPQVYEPTIFENYIHDIFVDGNSIELSLWDTAGQEEYDQLRSLSYSDTHVIMICFAVDSRDSLENVITKWLPEVSSNCPGVKLVLVALKCDLRGADEEQVDHSKIIDYEEGLAAAKKINAVRYLECSAKLNRGVNEAFTEAARVALAAQPRGTKDGADESHGTGCIIA
B4: GFP-Rho3T27N (GDP-locked variant of Rho3 fused to GFP) (protein, UniProt O13928 1-205)
chain: B3 chain with T27N
B5: GFP-Rho3E48V (effector domain mutant of Rho3 fused to GFP) (protein, UniProt O13928 1-205)
chain: B3 chain with E48V
B6: GFP-Rho3G22V (GTP-locked variant of Rho3 fused to GFP) (protein, UniProt O13928 1-205)
chain: B3 chain with G22V
B7: Apl2 fused to GFP (subunit of the AP-1 complex) (protein, UniProt O43079 1-683)
chain: MVPKLFQSSRFKAFKKSETSELQKGLVSQYAYERIDAVKRTIAAMTVGKDVSSLFPDVLKNLATRDITLKKLVYLYLINYAKTHPDLCILAVNTFVKDSEEYNPTLRALAIRTMGCIRVNKIIGYLADPLRKALKDEHPYVRKAAAVCVVKMYDLDREYCASNGFIEQLQALVSDPNPVVVANAVRSLAEIHDQDPEKGYFNVVYTMTDRLMVALSECNEWGRITILNSLARFRTSDIKEAEYVCERVVPQFQHANSGVVLSAVKVIMVHIPLFSSDFTDFLYKKMAPPLLTLLSTDSEIQYVALRNINLILQKRPSIFDVKTRVFFCKYNDPLYIKMEKLKIITMLACDENINETISELRAYVSEVELEFVKQTIKCLGDVALKVPSVINDCISIFLEIYELNISYMVQEVTVVMETVLRKYPQKIDLLLPYLSRVIEELGDPRARSSMAWILGEFSHVIPTSSKLLSEMISTMADEDLQIQLALLTAVVKLSLMNGKGNDEELVQKVLNYAINQSSNQDLRDRAFAYQRLLTPENVRKAQKIVCCEKPSVSYNNNLPEALLDALLCEITTLASVYHKLPESFIGQGKFGADAIQRRAVEELNIEEANVHEAIEKGANVENLLDLDFTDPGATSASDSPITSAQPQSGSNSAMDLFMAFEAPSTNNAEPVKARSATDDLLGL
B8: Apm1 fused to GFP (subunit of the AP-1 complex) (protein, UniProt Q9HFE5 1-426)
chain: MASAIFVLNLKGKVIISRDYRADIPMSVVEKFLPLKSEVEEEQGFSTPCLTHEGINYIYIHHNDVYLLALSKMNSDAMEMLVFLRKMADVFIDYFKELQEESIRDNFVLVYELLDEIMDFGFPQTTETKILQEYITQTSNTVKKHAPPPIAMTNAISWRSEGIHYRKNEVFLDVIESVNLIAAADGTVIQSEILGKVRLKCYLSGMPELRLGLNDKVLFEAAGRTIKGNTVEMEDVKFHQCVRLARFENDRTISFIPPDGEFDLMSYRMSSNVRPLIWVECESIVHSGSRIEFMVKAKAQFKKRCIANNVQIIIPVPEDADSPRFQTSNGHVQYAPEQAAMVWNIKKFAGGKEFFMRAEMGLPSVKNEDIQVQKKRPVQLKFAIPYFTTSGIQVRYLKITEPKLNYHAMPWVRYVTQNGTEYSIRQ
B9: GFP-Rho2 (GFP-fused Rho2) (protein, UniProt Q10133 1-200)
chain: MLQSQPIRRKLVVVGDGACGKTSLLSVFTLGYFPTEYVPTVFENYVSDCRVDGKSVQLALWDTAGQEEYERLRPMSYAKAHIILVGFAIDSPDSLENVSTKWIEEINTLCPNVPFILVGMKADLRSDPVAIEEMRRRNQNFVKSQQAELVAQRIGARKYMECSSLTGDGVDDVFEAATRAALTVRDSENDKSSTKCCIIS

Target: GST protein (glutathione-S-transferase alone)
Assay: pull-down; purified GST fusion protein (or GST) from S. pombe, nmt1 promoter, incubated with lysates of S. pombe cells expressing GFP-fused proteins; precipitated with glutathione beads, washed extensively, SDS-PAGE, immunoblot with anti-GFP or anti-GST antibodies; only the target purified

| binding | Binder |
| --- | --- |
| no binding | B1 |
| no binding | B2 |
| no binding | B3 |
| no binding | B4 |
| no binding | B5 |
| no binding | B6 |
| no binding | B7 |
| no binding | B8 |

Target: Sip1-i4-GST (Sip1-i4 mutant protein lacking the C-terminal 485 amino acids, fused to GST) (Schizosaccharomyces pombe) (UniProt O42998)
Assay: as above

| binding | Binder |
| --- | --- |
| no binding | B9 |
| binds | B1 |
| binds | B2 |
| binds | B3 |
| binds | B4 |
| binds | B5 |
| binds | B6 |
| binds | B7 |
| binds | B8 |
